Data: patent US6696433B2, “Use of sex steroids function modulators to treat wounds and fibrotic disorders” (Renovo Limited, priority 1996, dated 2004)
At least one structure is not confirmed: it was looked up by name or label, or the drawing left a doubt.

Tested on: full thickness incisional wounds
Test: Incisional wound healing in OVX and sham rats, histology at day 7 post-wounding
Assay type: in vivo, Female Sprague Dawley rats
Design: key to the marks not given beside the values
Conditions: single 100 μl intradermal injection
From the text: Female Sprague Dawley rats were housed together in three groups (1A, 1B and 1C) of nine to allow for synchronised oestrus cycling. Group 1A were ovariectomised (OVX) 18 days prior to wounding to allow circulating sex hormone levels to be eliminated. Group 1B (control) were untreated and Group 1C had the same operative procedure as the OVX (Group 1A), but without the removal of the ovaries, to ensure that the OVX operative procedure had no effect on the wounding studies (sham).
17 β-oestradiol (Sigma) was prepared as sterile 0.1% and 1% solutions in phosphate buffered saline (PBS) containing 0.1% and 1% 2-hydroxypropyl-β-cyclodextrin respectively, 2-hydroxypropyl-β-cyclodextrin is used in preparations as a carrier molecule to increase the water solubility of β-oestradiol. PBS/cyclodextrin was used as a vehicle control.
Animals from Groups 1A, 1B and 1C were given 4×1 cm length full thickness incisional wounds at 4.5-5.5 cm and 7.5-8.5 cm below the base of the skull, 1 cm either side of the midline. A single 100 μl intradermal injection was then given at each of the four wound sites. Each of the wounds (a total of 36 wounds on 9 rats in each group) received either 100 μl of oestradiol (0.1% or 1%), 100 μl of vehicle control (0.1% or 1% cyclodextrin) or was left unmanipulated (no injection).
The wounds were allowed to heal for 7 days after which the wounded tissue was excised for histological analysis.
7 μm paraffin-embedded sections were stained with H&E and Masson's Trichrome. The rate of re-epithelialisation (at day 7 post-wounding), and wound sizes as determined by planimetry, were determined with image analysis using an Olympus Vanox camera and PC image capture system. Collagen quantity within the wound was determined by two observers blinded to the identity of the specimen.

[1] = 0.1% oestradiol with 0.1% cyclodextrin vehicle, SHAM rats
[2] = 1% oestradiol with 1% cyclodextrin vehicle, OVX rats
[3] = 1% oestradiol with 1% cyclodextrin vehicle, SHAM rats

`C[C@]12CC[C@@H]3c4ccc(O)cc4CC[C@H]3[C@@H]1CC[C@@H]2O` [OESTRADIOL, 17 β-oestradiol] was tested, and the CELLS [1] was “++”, the “NEW COLLAGEN” value [1] was “+++” and the CELLS [2] was “++”. For the same compound, the “NEW COLLAGEN” value [2] was “+++”, the CELLS [3] was “++” and the “NEW COLLAGEN” value [3] was “++”.
